Results reported in publication PMC12454940.
No constants are given. Whether binding was seen depends on the method and setting. In cells and extracts the contact can be indirect. Some entries that bind do so weakly or less than the wild type.

Amino acid sequences for entries named in this document (tags omitted).
UniProt Q86WV6: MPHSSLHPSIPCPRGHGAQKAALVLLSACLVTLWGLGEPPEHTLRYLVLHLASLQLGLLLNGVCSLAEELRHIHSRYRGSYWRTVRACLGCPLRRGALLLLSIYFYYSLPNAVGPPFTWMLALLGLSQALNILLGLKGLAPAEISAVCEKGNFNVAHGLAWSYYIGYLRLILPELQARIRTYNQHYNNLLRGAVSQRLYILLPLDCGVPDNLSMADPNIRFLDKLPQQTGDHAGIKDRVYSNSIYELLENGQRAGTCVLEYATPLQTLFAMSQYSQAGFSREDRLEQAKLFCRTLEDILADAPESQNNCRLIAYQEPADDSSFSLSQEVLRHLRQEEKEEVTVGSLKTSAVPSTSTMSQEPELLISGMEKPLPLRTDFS
UniProt Q9UHK0: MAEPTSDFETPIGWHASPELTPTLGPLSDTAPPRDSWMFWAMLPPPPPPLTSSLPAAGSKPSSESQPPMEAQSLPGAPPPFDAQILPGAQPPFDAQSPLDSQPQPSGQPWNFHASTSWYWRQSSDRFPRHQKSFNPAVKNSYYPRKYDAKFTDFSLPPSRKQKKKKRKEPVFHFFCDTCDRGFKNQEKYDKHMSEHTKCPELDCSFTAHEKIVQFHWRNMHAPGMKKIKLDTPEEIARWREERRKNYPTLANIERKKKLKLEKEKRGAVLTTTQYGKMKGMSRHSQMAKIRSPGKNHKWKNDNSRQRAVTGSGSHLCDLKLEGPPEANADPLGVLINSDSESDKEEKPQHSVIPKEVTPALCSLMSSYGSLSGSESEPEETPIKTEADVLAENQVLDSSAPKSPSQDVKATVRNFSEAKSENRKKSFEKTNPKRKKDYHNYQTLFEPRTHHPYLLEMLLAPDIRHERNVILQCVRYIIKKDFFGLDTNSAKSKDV
UniProt Q9QXX8: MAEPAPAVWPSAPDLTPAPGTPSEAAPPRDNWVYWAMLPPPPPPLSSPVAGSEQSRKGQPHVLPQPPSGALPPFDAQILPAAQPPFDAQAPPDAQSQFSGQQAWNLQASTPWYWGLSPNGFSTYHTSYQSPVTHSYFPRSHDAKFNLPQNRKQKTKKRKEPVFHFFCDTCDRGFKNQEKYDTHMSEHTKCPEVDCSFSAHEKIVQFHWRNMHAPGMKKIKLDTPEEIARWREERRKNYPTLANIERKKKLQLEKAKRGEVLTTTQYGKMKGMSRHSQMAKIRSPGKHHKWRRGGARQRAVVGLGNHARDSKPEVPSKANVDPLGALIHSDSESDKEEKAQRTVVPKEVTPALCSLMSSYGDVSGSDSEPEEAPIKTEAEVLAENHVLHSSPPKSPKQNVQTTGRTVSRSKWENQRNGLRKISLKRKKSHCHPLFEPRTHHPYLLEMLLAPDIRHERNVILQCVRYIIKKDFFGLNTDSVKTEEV

Columns and labels:
[1] = biological target: stimulator of interferon genes (STING), in Jurkat T cells (human (endogenous in Jurkat)) (UniProt Q86WV6); experiment: co-IP; Jurkat T cell lysate; specific antibody to the desired protein, protein A/G agarose beads overnight at low temperature, washes, elution in SDS loading buffer, Western blot; which protein was precipitated not given
[2] = biological target: T1, Z-nucleic acid binding protein 1 (ZBP1), in Jurkat T cells (human (endogenous in Jurkat)) (UniProt Q9H171); experiment: as above
T1 sequence: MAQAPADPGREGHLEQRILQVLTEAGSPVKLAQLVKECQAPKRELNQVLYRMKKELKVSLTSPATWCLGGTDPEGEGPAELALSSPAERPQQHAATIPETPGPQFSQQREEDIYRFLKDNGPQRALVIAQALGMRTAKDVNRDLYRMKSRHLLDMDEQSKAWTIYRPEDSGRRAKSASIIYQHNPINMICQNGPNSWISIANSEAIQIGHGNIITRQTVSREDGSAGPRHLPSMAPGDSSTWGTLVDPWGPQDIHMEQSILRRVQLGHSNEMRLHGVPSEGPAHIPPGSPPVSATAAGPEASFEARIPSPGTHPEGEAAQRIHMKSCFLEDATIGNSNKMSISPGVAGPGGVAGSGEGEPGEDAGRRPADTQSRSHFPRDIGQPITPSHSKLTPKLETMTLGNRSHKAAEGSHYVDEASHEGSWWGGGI

[3] = biological target: T2, stimulator of interferon genes (STING), in murine CD4+ T lymphocytes (mouse (endogenous in CD4+ T lymphocytes)) (UniProt Q3TBT3); experiment: co-IP; lysate of primary CD4+ T lymphocytes from mouse spleen; specific antibody to the desired protein, protein A/G agarose beads overnight at low temperature, washes, elution in SDS loading buffer, Western blot; which protein was precipitated not given
T2 sequence: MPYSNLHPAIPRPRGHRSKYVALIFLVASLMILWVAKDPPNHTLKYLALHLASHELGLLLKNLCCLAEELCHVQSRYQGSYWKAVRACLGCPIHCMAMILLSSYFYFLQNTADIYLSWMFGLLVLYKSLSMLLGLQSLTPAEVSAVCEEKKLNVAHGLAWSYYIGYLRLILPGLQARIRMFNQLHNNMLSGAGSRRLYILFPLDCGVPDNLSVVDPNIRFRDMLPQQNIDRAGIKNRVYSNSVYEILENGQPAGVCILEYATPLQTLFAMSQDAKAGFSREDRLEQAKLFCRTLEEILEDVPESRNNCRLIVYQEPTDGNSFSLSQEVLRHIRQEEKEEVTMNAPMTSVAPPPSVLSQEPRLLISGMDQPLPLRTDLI

[4] = biological target: T3, Z-nucleic acid binding protein 1 (ZBP1), in mouse splenic CD4+ T lymphocytes (mouse (endogenous in splenic CD4+ T lymphocytes)) (UniProt Q9QY24); experiment: as above
T3 sequence: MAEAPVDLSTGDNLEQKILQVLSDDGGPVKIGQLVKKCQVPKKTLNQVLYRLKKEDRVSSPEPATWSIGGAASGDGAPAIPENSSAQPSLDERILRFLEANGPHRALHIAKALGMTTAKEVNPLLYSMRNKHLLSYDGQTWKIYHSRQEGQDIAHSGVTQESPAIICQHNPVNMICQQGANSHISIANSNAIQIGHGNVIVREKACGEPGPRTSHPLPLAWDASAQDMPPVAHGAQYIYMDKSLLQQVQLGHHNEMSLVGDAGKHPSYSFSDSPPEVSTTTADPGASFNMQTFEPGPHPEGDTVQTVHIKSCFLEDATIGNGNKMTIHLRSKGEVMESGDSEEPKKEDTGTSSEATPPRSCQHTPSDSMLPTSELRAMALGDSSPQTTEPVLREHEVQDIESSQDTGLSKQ

Row | binding [1] | binding [2] | binding [3] | binding [4] | Substance
1 | binds | binds |  |  | nuclear fragile X mental retardation-interacting protein 1 (NUFIP1), in Jurkat T cells (from UniProt Q9UHK0 1-495)
2 |  |  | binds | binds | nuclear fragile X mental retardation-interacting protein 1 (NUFIP1), in mouse splenic CD4+ T lymphocytes (from UniProt Q9QXX8 1-484)
